The text below walks through data of PubChem BioAssay AID248 (DTP/NCI, 2004).

The list shows only some results of the screen, not a fair sample: it gathers tests that were run many times, whatever their T/C, doses with no T/C, and many T/C values between a quarter and a half above the control. Further doses and runs are listed elsewhere. T/C gives the treated animals as a percentage of the vehicle group. Some entries give survivors of the animals treated and no T/C: the source holds a T/C of zero for them, seemingly a mark for toxic or unscored doses. Some survivor counts are full or nearly so, which does not show that the dose was tolerated: survival well below the control is almost never listed, so the zero probably covers shortened survival too. Counts of survivors are from the toxicity check (mostly the fifth day) where no day follows; animals may have died later. Schedule codes are those of the source, taken here to give the interval after Q, in days (D) or hours (H), and the number of doses after X. Some schedule codes hold Z or #, which are not explained here. For survival time, this PubChem deposit counts one and a half times the control or more as active, and values a quarter to a half above the control carry no call in these data; other NCI protocols may use other cut-offs. Some T/C values are followed by the survivors on the day toxicity was checked, most often the fifth; where none is given, no animal had died by that day.

In this experiment the test system is L1210 leukemia ip in BDF1 mice, survival T/C. The experiment is described as follows: NCI In Vivo Anticancer Drug Screen. Data for tumor model L1210 Leukemia (intraperitoneal) in B6D2F1 (BDF1) mice. To be noted: higher T/C = longer survival.
The mark [1] stands for this setting: T/C endpoint: mean survival time, dose: 0.08 mg/kg/injection, schedule: Q01DX Z (ip), vehicle: other.
The mark [2] stands for this setting: T/C endpoint: mean survival time, dose: 0.15 mg/kg/injection, schedule: Q01DX Z (ip), vehicle: other.
[3] abbreviates: T/C endpoint: mean survival time, dose: 200.0 mg/kg/injection, schedule: Q04DX003 (ip), vehicle: Klucel (hydroxypropylcellulose) (HPC).
Where [4] appears, read: T/C endpoint: mean survival time, dose: 400.0 mg/kg/injection, schedule: Q04DX003 (ip), vehicle: Klucel (hydroxypropylcellulose) (HPC).

Turning to `CC(=O)OCC1OC(n2nnc(CBr)c2CBr)C(OC(C)=O)C(OC(C)=O)C1OC(C)=O` (stereo unspecified), the survivor count by setting is: (T/C endpoint: mean survival time, dose: 100.0 mg/kg/injection, schedule: Q01DX005 (ip), vehicle: other) 3 of 6; (T/C endpoint: mean survival time, dose: 200.0 mg/kg/injection, schedule: Q01DX005 (ip), vehicle: other) 0 of 6.

For the compound `C=C(Cl)c1c(C)cc(C)c(CC#N)c1C`, the survivor count (T/C endpoint: mean survival time, dose: 50.0 mg/kg/injection, schedule: Q01DX009 (ip), vehicle: DMSO) is listed as 3 of 6; the survivor count (T/C endpoint: mean survival time, dose: 100.0 mg/kg/injection, schedule: Q04DX003 (ip), vehicle: DMSO) is 6 of 6; the survivor count (T/C endpoint: mean survival time, dose: 400.0 mg/kg/injection, schedule: Q04DX003 (ip), vehicle: DMSO) is 6 of 6.

As to `CN(C)c1ccc(NC(=S)Nc2ccc(N(C)C)cc2)cc1`, the survivor count is given as 3 of 3 (T/C endpoint: mean survival time, dose: 100.0 mg/kg/injection, schedule: Q01DX001 (ip), vehicle: saline with Tween-80) and 3 of 3 (T/C endpoint: mean survival time, dose: 200.0 mg/kg/injection, schedule: Q01DX001 (ip), vehicle: saline with Tween-80).

In the case of `O=[N+]([O-])c1cc(S(=O)(=O)c2ccccc2)ccc1S(=O)(=O)c1ccccc1`, the survivor count (T/C endpoint: mean survival time, dose: 100.0 mg/kg/injection, schedule: Q04DX003 (ip), vehicle: saline with Tween-80) is 6 of 6; the survivor count (T/C endpoint: mean survival time, dose: 200.0 mg/kg/injection, schedule: Q01DX005 (ip), vehicle: saline with Tween-80) is 4 of 4; the survivor count (T/C endpoint: mean survival time, dose: 200.0 mg/kg/injection, schedule: Q04DX003 (ip), vehicle: saline with Tween-80) is 5 of 6; the survivor count (T/C endpoint: mean survival time, dose: 400.0 mg/kg/injection, schedule: Q04DX003 (ip), vehicle: saline with Tween-80) is reported as 4 of 6.

Regarding `CC1CC(C)(O)CC(C(O)CC2CC(=O)NC(=O)C2)C1=O` (stereo unspecified), the T/C was 141 % of control (T/C endpoint: mean survival time, dose: 0.04 mg/kg/injection, schedule: Q01DX009 (ip), vehicle: saline); 128 % of control (T/C endpoint: mean survival time, dose: 0.05 mg/kg/injection, schedule: Q01DX Z (ip), vehicle: other); 143 % of control under setting [1]; 136 % of control (T/C endpoint: mean survival time, dose: 0.08 mg/kg/injection, schedule: Q03HX024 (ip), vehicle: saline); 128 % of control (T/C endpoint: mean survival time, dose: 0.15 mg/kg/injection, schedule: Q01DX005 (ip), vehicle: saline); 144 % of control (T/C endpoint: mean survival time, dose: 0.15 mg/kg/injection, schedule: Q01DX Z (ip), vehicle: methylcellulose (MC)). Also, the T/C by setting is: under setting [2], 148 % of control; (T/C endpoint: mean survival time, dose: 0.15 mg/kg/injection, schedule: Q03HX016 (ip), vehicle: saline) 141 % of control; (T/C endpoint: mean survival time, dose: 0.15 mg/kg/injection, schedule: Q04DX003 (ip), vehicle: saline) 128 % of control; (T/C endpoint: mean survival time, dose: 0.3 mg/kg/injection, schedule: Q01DX005 (ip), vehicle: saline) 129 % of control; (T/C endpoint: mean survival time, dose: 0.3 mg/kg/injection, schedule: Q01DX005 (iv), vehicle: saline) 131 % of control; (T/C endpoint: mean survival time, dose: 0.3 mg/kg/injection, schedule: Q04DX003 (ip), vehicle: saline) 135 % of control. The T/C runs as follows: (T/C endpoint: mean survival time, dose: 0.3 mg/kg/injection, schedule: Q08DX002 (ip), vehicle: saline) 137 % of control; (T/C endpoint: mean survival time, dose: 0.6 mg/kg/injection, schedule: Q01DX005 (ip), vehicle: saline) 126 % of control; (T/C endpoint: mean survival time, dose: 0.6 mg/kg/injection, schedule: Q04DX003 (ip), vehicle: saline) 136 % of control; (T/C endpoint: mean survival time, dose: 1.2 mg/kg/injection, schedule: Q04DX003 (ip), vehicle: saline) 145 % of control; (T/C endpoint: mean survival time, dose: 1.2 mg/kg/injection, schedule: Q08DX002 (ip), vehicle: saline) 136 % of control; (T/C endpoint: mean survival time, dose: 2.4 mg/kg/injection, schedule: Q08DX002 (ip), vehicle: saline) 140 % of control. For the same compound, the T/C (T/C endpoint: mean survival time, dose: 4.8 mg/kg/injection, schedule: Q08DX002 (ip), vehicle: saline) was 132 % of control [9 of 10 alive]; the T/C (T/C endpoint: median survival time, dose: 0.5 mg/kg/injection, schedule: Q04DX003 (ip), vehicle: saline) was 132 % of control; the T/C (T/C endpoint: median survival time, dose: 1.0 mg/kg/injection, schedule: Q04DX003 (ip), vehicle: saline) is 135 % of control. Also, the survivor count is, setting by setting: under setting [1], 4 of 6; under setting [2], 0 of 6; (T/C endpoint: mean survival time, dose: 0.3 mg/kg/injection, schedule: Q01DX009 (ip), vehicle: saline) 2 of 10; (T/C endpoint: mean survival time, dose: 0.3 mg/kg/injection, schedule: Q01DX Z (ip), vehicle: other) 0 of 6; (T/C endpoint: mean survival time, dose: 0.6 mg/kg/injection, schedule: Q01DX009 (ip), vehicle: saline) 0 of 10; (T/C endpoint: mean survival time, dose: 0.6 mg/kg/injection, schedule: Q01DX Z (ip), vehicle: other) 0 of 6. Besides, the survivor count reads like this: (T/C endpoint: mean survival time, dose: 0.6 mg/kg/injection, schedule: Q03HX016 (ip), vehicle: saline) 2 of 10; (T/C endpoint: mean survival time, dose: 1.2 mg/kg/injection, schedule: Q01DX009 (oral), vehicle: saline) 4 of 10; (T/C endpoint: mean survival time, dose: 2.4 mg/kg/injection, schedule: Q01DX009 (oral), vehicle: saline) 1 of 10; (T/C endpoint: mean survival time, dose: 4.8 mg/kg/injection, schedule: Q11DX001 (oral), vehicle: saline) 2 of 10; (T/C endpoint: mean survival time, dose: 4.8 mg/kg/injection, schedule: Q14DX008 (ip), vehicle: saline) 0 of 10; (T/C endpoint: mean survival time, dose: 9.6 mg/kg/injection, schedule: Q11DX001 (oral), vehicle: saline) 0 of 10. For the same compound, the survivor count is recorded as 0 of 10 (T/C endpoint: mean survival time, dose: 19.2 mg/kg/injection, schedule: Q11DX001 (oral), vehicle: saline); 4 of 8 (T/C endpoint: median survival time, dose: 4.0 mg/kg/injection, schedule: Q04DX003 (ip), vehicle: saline); 4 of 8 (T/C endpoint: median survival time, dose: 8.0 mg/kg/injection, schedule: Q04DX003 (ip), vehicle: saline).

Turning to `CS/C(N)=N\N=C/c1ccccc1`, the survivor count runs as follows: (T/C endpoint: mean survival time, dose: 50.0 mg/kg/injection, schedule: Q04DX003 (ip), vehicle: saline) 3 of 6; (T/C endpoint: mean survival time, dose: 100.0 mg/kg/injection, schedule: Q04DX003 (ip), vehicle: saline) 0 of 6; (T/C endpoint: mean survival time, dose: 200.0 mg/kg/injection, schedule: Q01DX001 (ip), vehicle: saline) 0 of 6; (T/C endpoint: mean survival time, dose: 400.0 mg/kg/injection, schedule: Q01DX001 (ip), vehicle: saline) 0 of 6.

Take `OC(CCN1CCCCC1)(c1ccccc1)C1CC2C=CC1C2` (stereo unspecified): the survivor count runs as follows: (T/C endpoint: mean survival time, dose: 200.0 mg/kg/injection, schedule: Q01DX009 (ip), vehicle: Klucel (hydroxypropylcellulose) (HPC)) 0 of 6; under setting [3], 3 of 4; (T/C endpoint: mean survival time, dose: 400.0 mg/kg/injection, schedule: Q01DX009 (ip), vehicle: Klucel (hydroxypropylcellulose) (HPC)) 0 of 6; under setting [4], 0 of 4.

On to `CC(C)[As](C)(=O)O`, for which the survivor count reads like this: (T/C endpoint: mean survival time, dose: 50.0 mg/kg/injection, schedule: Q04DX003 (ip), vehicle: Klucel (hydroxypropylcellulose) (HPC)) 1 of 6; (T/C endpoint: mean survival time, dose: 100.0 mg/kg/injection, schedule: Q04DX003 (ip), vehicle: Klucel (hydroxypropylcellulose) (HPC)) 0 of 6.

Consider `O=C1CCCC(=O)C1C(C[N+](=O)[O-])c1ccccc1` (stereo unspecified), for which the survivor count is 6 of 6 under setting [3] and 0 of 6 under setting [4].

For the compound `COC1OC(CO)C(O)C(N)C1O` (stereo unspecified), the survivor count (T/C endpoint: mean survival time, dose: 400.0 mg/kg/injection, schedule: Q04DX003 (ip), vehicle: saline) is given as 1 of 6.

Take `CC(=O)Nc1ccc2c(c1)C(N)c1ccccc1-2` (stereo unspecified): the T/C was 148 % of control (T/C endpoint: mean survival time, dose: 200.0 mg/kg/injection, schedule: Q01DX009 (ip), vehicle: saline) and 134 % of control (T/C endpoint: mean survival time, dose: 200.0 mg/kg/injection, schedule: Q01DX Z (ip), vehicle: saline). Further, the survivor count (T/C endpoint: mean survival time, dose: 300.0 mg/kg/injection, schedule: Q01DX009 (ip), vehicle: saline with Tween-80) is given as 3 of 6; the survivor count (T/C endpoint: mean survival time, dose: 300.0 mg/kg/injection, schedule: Q01DX Z (ip), vehicle: carboxymethylcellulose (CMC)) is given as 5 of 6; the survivor count (T/C endpoint: mean survival time, dose: 300.0 mg/kg/injection, schedule: Q01DX Z (ip), vehicle: saline) is listed as 3 of 6; the survivor count (T/C endpoint: mean survival time, dose: 400.0 mg/kg/injection, schedule: Q01DX009 (ip), vehicle: saline) was 1 of 6.
